# Results: US20080125424A1, “Derivatives of urea and related diamines, methods for their manufacture, and uses therefor” (priority 2006, published 2008)
# Counter-ions that a name gives are not always drawn. Some of these results come from one statement about several compounds together.
# Target: T1, Human Ca2+ receptor (Homo sapiens, UniProt P41180)
# T1 construct: expressed in transfected cells
# T1 sequence (P41180 20-1078): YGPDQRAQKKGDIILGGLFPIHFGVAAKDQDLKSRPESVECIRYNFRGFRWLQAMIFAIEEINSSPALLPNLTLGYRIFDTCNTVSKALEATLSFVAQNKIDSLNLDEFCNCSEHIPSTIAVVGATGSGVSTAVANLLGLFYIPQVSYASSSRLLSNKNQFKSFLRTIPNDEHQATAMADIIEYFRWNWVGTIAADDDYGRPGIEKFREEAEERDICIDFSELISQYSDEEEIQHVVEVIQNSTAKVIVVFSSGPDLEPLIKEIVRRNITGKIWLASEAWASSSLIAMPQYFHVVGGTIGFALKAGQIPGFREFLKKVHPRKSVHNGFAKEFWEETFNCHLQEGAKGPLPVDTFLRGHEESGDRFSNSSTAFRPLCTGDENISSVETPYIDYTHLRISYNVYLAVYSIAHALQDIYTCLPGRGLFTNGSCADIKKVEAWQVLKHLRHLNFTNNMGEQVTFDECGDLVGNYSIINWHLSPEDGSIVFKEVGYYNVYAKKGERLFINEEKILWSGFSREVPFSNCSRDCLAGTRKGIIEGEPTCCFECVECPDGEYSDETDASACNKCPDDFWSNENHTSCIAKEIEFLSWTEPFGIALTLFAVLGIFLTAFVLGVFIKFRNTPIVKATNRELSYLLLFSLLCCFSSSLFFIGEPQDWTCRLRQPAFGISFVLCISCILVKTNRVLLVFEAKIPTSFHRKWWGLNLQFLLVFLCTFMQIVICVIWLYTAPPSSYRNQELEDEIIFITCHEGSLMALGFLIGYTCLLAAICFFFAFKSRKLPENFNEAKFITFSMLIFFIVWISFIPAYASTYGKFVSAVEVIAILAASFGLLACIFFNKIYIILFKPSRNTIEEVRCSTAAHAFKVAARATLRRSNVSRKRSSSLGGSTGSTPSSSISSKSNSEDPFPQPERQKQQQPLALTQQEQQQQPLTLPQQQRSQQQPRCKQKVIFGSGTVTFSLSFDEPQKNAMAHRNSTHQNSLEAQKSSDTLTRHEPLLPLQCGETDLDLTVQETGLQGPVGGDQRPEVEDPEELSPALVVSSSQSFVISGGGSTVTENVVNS
# Assay: Luciferase reporter assay in CHO cells (ET8-5-5) transfected with human Ca2+ receptor
# Type: cell-based
# Conditions: CHO ET8-5-5 cells
# Procedure: The activities of the compounds of the present invention on calcium receptors were measured in accordance with the method described hereinbelow.
# Human Ca^2+ receptor cDNA was subcloned into the mammalian expression vector PECE as described in Ellis, L et al. (1986) Cell vol. 45, 721-732. The luciferase reporter was subcloned into the mammalian expression vector pGL3basic (Promega). Resistance to neomycin (pSV2-neo) and resistance to puromycin (pSG5-puro) were used as selection markers. All these plasmids were simultaneously transfected into CHO cells by calcium phosphate precipitation. Transfected cells were grown in F12 medium containing 7.5% foetal bovine serum, 100 U/ml penicillin and 100 μg/ml streptomycin (as 1% Pen-Strep, BioWithaker), neomycin (750 μg/ml) and puromycin (5 μg/ml). Neomycin and puromycin resistant colonies were subcloned and assayed for activation against a range of calcium concentration. Clone 8-5-5 was used to assess the effects of compounds on [Ca^2+]i. This stably transfected cell line was termed ET8-5-5.
# For measurements of [Ca^2+]i, the cells were recovered from tissue culture flasks by brief treatment with Trypsin-EDTA (Invitrogen; containing 0.53 mM EDTA.4Na in HBSS) and then seeded in culture-treated 96-well plates (Greiner) at 50 k cells per well in the growth media (same as above, except neomycin 400 μg/ml). Cells were grown in 37° C. TC incubator for 24 h. The culture medium was then removed and replaced with F12 medium, 1% Pen-Strep for an overnight foetal bovine serum starvation in 37° C. TC incubator. Then the starvation medium was removed and replaced with a test buffer (20 mM HEPES pH 7.4, 125 mM NaCl, 5 mM KCl, 1 mM MgCl2, 5.5 mM Glucose, 2 g/l lysosyme and 0.3 mM CaCl2) supplemented with a range of test compound concentrations crossed against a super-added range of CaCl2 concentrations. The cells were incubated with the test compounds for 5 h in 37° C. TC incubator. Then the test buffer was discarded, and cells were added with the substrate for Luciferase from SteadyLite Kit (Perkin-Elmer). The luminescence was recorded.
row,EC50 [µM],Compound
1,≤ 10,"CC(C)(C)OC(=O)N1CCN(C(=O)CCCN(CCC(c2ccccc2)c2ccccc2)C(=O)Nc2nc(-c3ccccc3)cs2)CC1 [Example 96, tert-butyl 4-(4-(1-(3,3-diphenylpropyl)-3-(4-phenylthiazol-2-yl)ureido)butanoyl)piperazine-1-carboxylate]"
2,≤ 10,"COC(=O)c1cccc(NC(=O)NCCC(c2ccc(C)cc2)c2ccc(C)cc2)c1 [Example 5, 3-[3-(3,3-di-p-tolyl-propyl)-ureido]-benzoic acid methyl ester]"
3,≤ 10,"COC(=O)c1cc(NC(=O)NCCC(c2ccccc2)c2ccccc2)ccc1O [Example 41, 5-[3-(3,3-diphenyl-propyl)-ureido]-2-hydroxy-benzoic acid methyl ester]"
4,≤ 10,"O=C(CCCN(CCC(c1ccccc1)c1ccccc1)C(=O)Nc1nc2ccccc2s1)N[C@H]1CCCNC1 [Example 74, (S)-3-(benzo[d]thiazol-2-yl)-1-(3,3-diphenylpropyl)-1-(4-oxo-4-(piperidin-3-ylamino)butyl)urea]"
5,≤ 10,"O=C(NCCC(c1ccccc1)c1ccccc1)Nc1ccc(N2CCOCC2)cc1 [Example 28, 1-(3,3-diphenyl-propyl)-3-(4-morpholin-4-yl-phenyl)-urea]"
6,≤ 10,"CC1OCCC1NCCN(CCC(c1ccccc1)c1ccccc1)C(=O)Nc1nc2ccccc2s1 (stereo not shown) [Example 157, 3-Benzothiazol-2-yl-1-(3,3-diphenyl-propyl)-1-[2-(2-methyl-tetrahydro-furan-3-ylamino)-ethyl]-urea]"
7,≤ 10,"COc1cccc(NC(=O)NCCC(c2ccc(C)cc2)c2ccc(C)cc2)c1 [Example 4, 1-(3,3-di-p-tolyl-propyl)-3-(3-methoxy-phenyl)-urea]"
8,≤ 10,"CCCS(=O)(=O)NCCN(CCC(c1ccccc1)c1ccccc1)C(=O)Nc1nc2ccccc2s1 [Example 168, Propane-1-sulfonic acid {2-[3-benzothiazol-2-yl-1-(3,3-diphenyl-propyl)-ureido]-ethyl}-amide]"
9,≤ 10,"CCOC(=O)CCCN(CCC(c1ccccc1)c1ccccc1)C(=O)Nc1cccc(C(=O)OC)c1 [Example 64, 3-[3-(3,3-diphenyl-propyl)-3-(3-ethoxycarbonyl-propyl)-ureido]-benzoic acid methyl ester]"
10,≤ 10,"CC(C)(C)OC(=O)CN1CCC(NCCN(CCC(c2ccccc2)c2ccccc2)C(=O)Nc2nc3ccccc3s2)CC1 [Example 158, (4-{2-[3-Benzothiazol-2-yl-1-(3,3-diphenyl-propyl)-ureido]-ethylamino}-piperidin-1-yl)acetic acid tert-butyl ester]"
11,≤ 10,"CS(=O)(=O)Nc1ccc(-c2nc(NC(=O)N(CCC(=O)O)CCC(c3ccccc3)c3ccccc3)sc2Cl)cc1 [Example 98, 3-(3-(5-chloro-4-(4-(methylsulfonamido)phenyl)thiazol-2-yl)-1-(3,3-diphenylpropyl)ureido)propanoic acid]"
12,≤ 10,"C[C@@H](NC(=O)NCCC(c1ccccc1)c1ccccc1)c1ccccc1 [Example 17, (R) - 1-(3,3-diphenyl-propyl)-3-(1-phenyl-ethyl)-urea]"
13,≤ 10,"FC(F)(F)c1cc(NC(=S)NCCC(c2ccccc2)c2ccccc2)ccc1Cl [Example 44, 1-(4-chloro-3-trifluoromethyl-phenyl)-3-(3,3-diphenyl-propyl)-thiourea]"
14,≤ 10,"C[C@H]1CNCCN1C(=O)CCN(CCC(c1ccccc1)c1ccccc1)C(=O)Nc1nc2ccccc2s1 [Example 123, (S)-3-(benzo[d]thiazol-2-yl)-1-(3,3-diphenylpropyl)-1-(3-(2-methylpiperazin-1-yl)-3-oxopropyl)urea]"
15,≤ 10,"O=C(NCCC(c1ccccc1)c1ccccc1)Nc1ccc(Oc2ccccc2)cc1 [Example 15, 1-(3,3-diphenyl-propyl)-3-(4-phenoxy-phenyl)-urea]"
16,≤ 10,"O=C(NCCC(c1ccccc1)c1ccccc1)Nc1cccc(-c2cnco2)c1 [Example 59, 1-(3,3-diphenyl-propyl)-3-(3-oxazol-5-yl-phenyl)-urea]"
17,≤ 10,"O=C(NCCC(c1ccccc1)c1ccccc1)Nc1cccc([N+](=O)[O-])c1 [Example 3, 1-(3,3-diphenyl-propyl)-3-(3-nitro-phenyl)-urea]"
18,≤ 10,"O=C(NCCC(c1ccccc1)c1ccccc1)Nc1cccnc1Cl [Example 34, 1-(2-chloro-pyridin-3-yl)-3-(3,3-diphenyl-propyl)-urea]"
19,≤ 10,"N#Cc1ccc(S(=O)(=O)NCCN(CCC(c2ccccc2)c2ccccc2)C(=O)Nc2nc3ccccc3s2)cc1 [Example 169, N-{2-[3-Benzothiazol-2-yl-1-(3,3-diphenyl-propyl)-ureido]-ethyl}-4-cyanobenzenesulfonamide]"
20,≤ 10,"O=C(Nc1nc2ccccc2s1)N(CCN[C@@H]1CCCNC1)CCC(c1ccccc1)c1ccccc1 [Example 145, (R)-3-(benzo[d]thiazol-2-yl)-1-(3,3-diphenylpropyl)-1-(2-(piperidin-3-ylamino)ethyl)urea]"
21,≤ 10,"O=C1CC[C@@H](NCCN(CCC(c2ccccc2)c2ccccc2)C(=O)Nc2nc(-c3ccccc3)c(Cl)s2)CN1 [Example 147, (R)-3-(5-chloro-4-phenylthiazol-2-yl)-1-(3,3-diphenylpropyl)-1-(2-(6-oxopiperidin-3-ylamino)ethyl)urea]"
22,≤ 10,"O=C(O)c1cccc(NC(=S)NCCC(c2ccccc2)c2ccccc2)c1 [Example 50, 3-[3-(3,3-diphenyl-propyl)-thioureido]-benzoic acid]"
23,≤ 10,"CN(C)CC(C)(C)CNCCN(CCC(c1ccccc1)c1ccccc1)C(=O)Nc1nc2ccccc2s1 [Example 150, 3-Benzothiazol-2-yl-1-[2-(3-dimethylamino-2,2-dimethyl-propylamino)-ethyl]-1-(3,3-diphenyl-propyl)-urea trihydrochloride]"
24,≤ 10,"NC(=O)CCCN(CCC(c1ccccc1)c1ccccc1)C(=O)Nc1nc(-c2ccccc2)c(Cl)s1 [Example 81, 1-(4-amino-4-oxobutyl)-3-(5-chloro-4-phenylthiazol-2-yl)-1-(3,3-diphenylpropyl)urea]"
25,≤ 10,"CS(=O)(=O)Nc1ccc(-c2nc(NC(=O)N(CCN[C@@H]3CCCNC3)CCC(c3ccccc3)c3ccccc3)sc2Cl)cc1 [Example 140, (R)-3-(5-chloro-4-(4-(methylsulfonamido)phenyl)thiazol-2-yl)-1-(3,3-diphenylpropyl)-1-(2-(piperidin-3-ylamino)ethyl)urea]"
26,≤ 10,"COC(=O)c1cccc(NC(=O)NCCC(c2cccc(C(F)(F)F)c2)c2cccc(C(F)(F)F)c2)c1 [Example 8, 3-{3-[3,3-bis-(3-trifluoromethyl-phenyl)-propyl]-ureido}-benzoic acid methyl ester]"
27,≤ 10,"O=C(NCCC(c1ccccc1)c1ccccc1)Nc1ccc2c(c1)Cc1ccccc1-2 [Example 31, 1-(3,3-diphenyl-propyl)-3-(9H-fluoren-2-yl)-urea]"
28,≤ 10,"CS(=O)(=O)Nc1ccc(-c2nc(NC(=O)N(CCOC(N)=O)CCC(c3ccccc3)c3ccccc3)sc2Cl)cc1 [Example 132, 2-(3-(5-chloro-4-(4-(methylsulfonamido)phenyl)thiazol-2-yl)-1-(3,3-diphenylpropyl)ureido)ethyl carbamate]"
